Experimental data published in publication PMC8649871.
Positions count from the first letter of the chain named. These are yes or no findings as the source states them, for the method shown. Binding seen in cells or lysates may run through a third protein. Some binding calls cover weakened binding; strength is not graded here. Sequences can lack the tags named with a protein.

Columns and labels:
Assay in all cases: co-IP; HEK293 cells 36 h after transfection of the indicated plasmids, NP-40 lysis buffer; FLAG-M2 magnetic beads overnight at 4°C, washed four to five times with lysis buffer; western blotting
[1] = target: T1, FLAG-tagged MOS Arg246His variant (human) (UniProt P00540)
T1 sequence: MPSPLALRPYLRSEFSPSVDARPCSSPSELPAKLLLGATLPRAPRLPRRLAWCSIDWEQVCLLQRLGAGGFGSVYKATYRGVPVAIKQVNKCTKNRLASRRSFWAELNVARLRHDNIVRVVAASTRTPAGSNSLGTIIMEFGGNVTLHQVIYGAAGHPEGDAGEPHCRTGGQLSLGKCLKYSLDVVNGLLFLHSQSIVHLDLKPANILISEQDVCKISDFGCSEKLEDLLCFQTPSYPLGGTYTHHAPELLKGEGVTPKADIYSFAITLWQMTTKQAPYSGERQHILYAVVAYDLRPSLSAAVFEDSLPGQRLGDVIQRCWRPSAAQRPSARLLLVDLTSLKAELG

[2] = target: T2, FLAG-tagged MOS Asn95Lys variant (human) (UniProt P00540)
T2 sequence: T1 sequence with N95K, H246R

[3] = target: T3, FLAG-tagged MOS Cys320Ter variant (human) (UniProt P00540)
T3 sequence: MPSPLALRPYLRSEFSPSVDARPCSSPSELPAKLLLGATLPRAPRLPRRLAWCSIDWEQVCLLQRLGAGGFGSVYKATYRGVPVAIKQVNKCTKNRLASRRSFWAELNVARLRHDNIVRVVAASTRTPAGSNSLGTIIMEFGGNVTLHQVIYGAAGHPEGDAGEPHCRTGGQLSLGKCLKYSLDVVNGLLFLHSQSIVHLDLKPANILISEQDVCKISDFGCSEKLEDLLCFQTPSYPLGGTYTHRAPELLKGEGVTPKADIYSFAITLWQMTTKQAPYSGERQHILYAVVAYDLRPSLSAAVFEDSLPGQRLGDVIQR

[4] = target: T4, FLAG-tagged wild-type MOS (Moloney sarcoma oncogene, serine/threonine kinase) (human) (UniProt P00540)
T4 sequence: T1 sequence with H246R

- binding [1]: binds
- binding [2]: binds
- binding [3]: binds weakly
- binding [4]: binds
Substance: MEK1 (from UniProt Q02750 1-393) (enzyme)
